No constants are given. Whether binding was seen depends on the method and setting. In cells and extracts the contact can be indirect. Some binding calls cover weakened binding; strength is not graded here. For some assays here: Sequences can lack the tags named with a protein.
Columns and labels:
[1] = target: T1, endogenous API5 (apoptosis inhibitor 5) of DF-1 cells (chicken (endogenous in DF-1)) (UniProt Q5ZMW3); assay: co-IP; lysates of DF-1 cells precipitated with anti-API5 mouse MAb (anti-IgG as control); blot with anti-API5 and anti-UBC9 rabbit pAbs
T1 sequence: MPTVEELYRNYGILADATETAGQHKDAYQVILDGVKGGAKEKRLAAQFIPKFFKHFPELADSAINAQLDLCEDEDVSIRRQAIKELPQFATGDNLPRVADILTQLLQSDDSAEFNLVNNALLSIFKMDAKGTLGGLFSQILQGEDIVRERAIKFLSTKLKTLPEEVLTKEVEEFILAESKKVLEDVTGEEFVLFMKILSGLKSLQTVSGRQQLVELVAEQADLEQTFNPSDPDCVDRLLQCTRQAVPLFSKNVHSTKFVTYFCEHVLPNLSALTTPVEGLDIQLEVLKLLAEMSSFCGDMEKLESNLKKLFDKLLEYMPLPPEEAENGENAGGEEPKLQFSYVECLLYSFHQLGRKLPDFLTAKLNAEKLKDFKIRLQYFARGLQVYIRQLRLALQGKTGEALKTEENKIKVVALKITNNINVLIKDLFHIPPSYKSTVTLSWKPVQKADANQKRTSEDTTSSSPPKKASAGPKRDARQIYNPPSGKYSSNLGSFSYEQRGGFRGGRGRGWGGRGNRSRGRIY

Amino acid sequences for entries named in this document (tags omitted).
UniProt P63283: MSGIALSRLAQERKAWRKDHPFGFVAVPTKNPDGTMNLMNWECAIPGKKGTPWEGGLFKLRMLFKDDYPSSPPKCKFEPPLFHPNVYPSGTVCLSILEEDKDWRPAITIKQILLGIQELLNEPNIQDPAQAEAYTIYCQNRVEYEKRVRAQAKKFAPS
UniProt P63279: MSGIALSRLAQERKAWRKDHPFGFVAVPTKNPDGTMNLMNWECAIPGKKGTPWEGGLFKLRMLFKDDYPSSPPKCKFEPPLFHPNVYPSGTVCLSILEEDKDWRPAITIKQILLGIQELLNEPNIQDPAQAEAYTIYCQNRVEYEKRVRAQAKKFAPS

[2] = target: T2, Flag-API5 (apoptosis inhibitor 5) (Gallus (chicken)) (UniProt Q5ZMW3); assay: co-IP; HEK293T cells cotransfected for 48 h, lysed in NP-40 buffer; precipitated with anti-Flag, anti-Myc or anti-GFP mouse MAb and protein A/G agarose at 4°C; Western blot
T2 sequence: T1 sequence

Row | binding [1] | binding [2] | Substance
1 | binds | – | endogenous UBC9 of DF-1 cells (from UniProt P63283 1-158) (enzyme)
2 | – | binds | pEGFP-UBC9 (from UniProt P63279 1-158) (enzyme)

Source: article PMC8406308
